Data source: PubChem BioAssay AID1259308 (NCATS, 2017)

- Purpose: 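Genes whose loss raises luciferase production in HEK293 cells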 (primary screen)
- Cell system: human HEK293 embryonic kidney cells stably expressing firefly luciferase (HEK-CMV-Luc2-Hygro)
- Reagents: single siRNA against human genes, 0.8 pmol siRNA per well
- Timing: 72 h
- Detection: 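Luciferase light (ONE-Glo) measured on one replicate plate set and viability (CellTiter-Glo) on the other, scaled to a negative control siRNA, with robust z-scores and luciferase per cell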
- Scale: total luciferase, z-score and total luciferase, % of control: higher = more reporter protein produced
- Active means: 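Active when the median/MAD z-score for overall luciferase is greater than 3; a gene was taken forward for validation with new siRNAs if at least two of its three siRNAs passed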
- Calls: active = raised luciferase; inactive = no rise
In all, the deposit lists about 59,000 reagents; this is an unselected part. Of all reagents, about 1,510 (2.6%) were called active. 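Calls use total luciferase alone and ignore viability, so some active siRNAs may act by altering cell number.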 Unmarked entries are inactive. The numbers tell different reagents against one gene apart. Further read-outs or replicates are left out here. No sequences are given here.

{"target": "FER1L6 (fer-1 like family member 6)", "reagent": 1, "total luciferase, z-score": 0.901, "total luciferase, % of control": 99.8}
{"target": "FER1L6 (fer-1 like family member 6)", "reagent": 2, "total luciferase, z-score": 0.746, "total luciferase, % of control": 96.7}
{"target": "FER1L6 (fer-1 like family member 6)", "reagent": 3, "total luciferase, z-score": 1.06, "total luciferase, % of control": 103}
{"target": "RAD21 (RAD21 cohesin complex component)", "reagent": 1, "total luciferase, z-score": 0.0899, "total luciferase, % of control": 83.7}
{"target": "RAD21 (RAD21 cohesin complex component)", "reagent": 2, "total luciferase, z-score": -1.15, "total luciferase, % of control": 58.9}
{"target": "RAD21 (RAD21 cohesin complex component)", "reagent": 3, "total luciferase, z-score": -0.898, "total luciferase, % of control": 64}

Reformatted: entries from further up.
target	reagent	total luciferase, z-score	total luciferase, % of control
FER1L6 (fer-1 like family member 6)	3	1.06	103
RAD21 (RAD21 cohesin complex component)	1	0.0899	83.7

Additional entries:
{"target": "BEND2 (BEN domain containing 2)", "reagent": 1, "total luciferase, z-score": 0.808, "total luciferase, % of control": 98}
{"target": "BEND2 (BEN domain containing 2)", "reagent": 2, "total luciferase, z-score": -0.218, "total luciferase, % of control": 77.6}
{"target": "BEND2 (BEN domain containing 2)", "reagent": 3, "total luciferase, z-score": -1.09, "total luciferase, % of control": 60.1}
{"target": "ZBTB40 (zinc finger and BTB domain containing 40)", "reagent": 1, "total luciferase, z-score": -1.03, "total luciferase, % of control": 61.4}
{"target": "ZBTB40 (zinc finger and BTB domain containing 40)", "reagent": 2, "total luciferase, z-score": -0.506, "total luciferase, % of control": 71.8}
{"target": "ZBTB40 (zinc finger and BTB domain containing 40)", "reagent": 3, "total luciferase, z-score": 0.177, "total luciferase, % of control": 85.4}
